No constants are given. Whether binding was seen depends on the method and setting. In cells and extracts the contact can be indirect. A yes stands for co-enrichment or nearness to the bait. Other partners may have been found. A no says only that the protein was not detected with the bait. Sequences can lack the tags named with a protein.
molecular target: T1, homolog of methionine γ-lyase (MGL) encoded by synpcc7942_2562, triple-FLAG-tagged (Synechococcus elongatus sp. PCC 7942) (UniProt Q54763); test: affinity purification with mass spectrometry; lysate of S. elongatus strain 2562::Tn5/2562::FLAG on anti-FLAG magnetic beads, 2 h at room temperature and overnight at 4 °C; eluted with 100 µM triple-FLAG peptide; non-tagged strain 2562::Tn5/2562 as negative control; three independent biological repetitions; hits at fold ≥ 2, p value ≤ 0.05
T1 sequence: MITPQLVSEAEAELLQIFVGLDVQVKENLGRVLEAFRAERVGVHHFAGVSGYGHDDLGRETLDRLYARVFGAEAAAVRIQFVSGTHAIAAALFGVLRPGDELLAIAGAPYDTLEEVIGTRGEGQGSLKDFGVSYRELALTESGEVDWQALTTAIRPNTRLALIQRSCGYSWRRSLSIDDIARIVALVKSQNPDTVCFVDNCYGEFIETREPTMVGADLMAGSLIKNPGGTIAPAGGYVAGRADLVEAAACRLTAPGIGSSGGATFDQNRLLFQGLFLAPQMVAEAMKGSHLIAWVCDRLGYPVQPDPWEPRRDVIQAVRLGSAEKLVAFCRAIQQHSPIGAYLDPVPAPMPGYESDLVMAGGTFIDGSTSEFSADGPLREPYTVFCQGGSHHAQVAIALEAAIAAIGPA

Row | binding | Substance
1 | no binding | EbsA (essential for biofilm suppression)
2 | binds | translation initiation factor IF-1
3 | binds | 23 S rRNA (Uracil-5-)- methyltransferase (enzyme)

From PMC12647202
